In experiment [1] the target is hf-tagged Nef of HIV-1 strain SF2 (HIV-1 strain SF2) (UniProt P03407). Briefly: co-IP; HEK 293 cells transiently coexpressing epitope-tagged DOCK2, ELMO1, Rac2 or Rac1 and hf-tagged Nef; extracts in LB buffer on anti-FLAG M2 affinity gel overnight, washed with LB and LB with 0.5 M LiCl, FLAG peptide elution; immunoblotting. Background: Immunoblotting shows a protein as a band on a membrane.

Sequences of proteins named here, by UniProt entry; tags and fusion partners are left off.
UniProt P03407: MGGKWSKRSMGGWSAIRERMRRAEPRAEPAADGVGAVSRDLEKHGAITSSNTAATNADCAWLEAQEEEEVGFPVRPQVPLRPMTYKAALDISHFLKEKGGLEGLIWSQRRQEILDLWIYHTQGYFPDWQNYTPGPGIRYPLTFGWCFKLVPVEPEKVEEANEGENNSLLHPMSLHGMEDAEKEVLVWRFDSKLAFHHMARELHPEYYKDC
UniProt Q92608: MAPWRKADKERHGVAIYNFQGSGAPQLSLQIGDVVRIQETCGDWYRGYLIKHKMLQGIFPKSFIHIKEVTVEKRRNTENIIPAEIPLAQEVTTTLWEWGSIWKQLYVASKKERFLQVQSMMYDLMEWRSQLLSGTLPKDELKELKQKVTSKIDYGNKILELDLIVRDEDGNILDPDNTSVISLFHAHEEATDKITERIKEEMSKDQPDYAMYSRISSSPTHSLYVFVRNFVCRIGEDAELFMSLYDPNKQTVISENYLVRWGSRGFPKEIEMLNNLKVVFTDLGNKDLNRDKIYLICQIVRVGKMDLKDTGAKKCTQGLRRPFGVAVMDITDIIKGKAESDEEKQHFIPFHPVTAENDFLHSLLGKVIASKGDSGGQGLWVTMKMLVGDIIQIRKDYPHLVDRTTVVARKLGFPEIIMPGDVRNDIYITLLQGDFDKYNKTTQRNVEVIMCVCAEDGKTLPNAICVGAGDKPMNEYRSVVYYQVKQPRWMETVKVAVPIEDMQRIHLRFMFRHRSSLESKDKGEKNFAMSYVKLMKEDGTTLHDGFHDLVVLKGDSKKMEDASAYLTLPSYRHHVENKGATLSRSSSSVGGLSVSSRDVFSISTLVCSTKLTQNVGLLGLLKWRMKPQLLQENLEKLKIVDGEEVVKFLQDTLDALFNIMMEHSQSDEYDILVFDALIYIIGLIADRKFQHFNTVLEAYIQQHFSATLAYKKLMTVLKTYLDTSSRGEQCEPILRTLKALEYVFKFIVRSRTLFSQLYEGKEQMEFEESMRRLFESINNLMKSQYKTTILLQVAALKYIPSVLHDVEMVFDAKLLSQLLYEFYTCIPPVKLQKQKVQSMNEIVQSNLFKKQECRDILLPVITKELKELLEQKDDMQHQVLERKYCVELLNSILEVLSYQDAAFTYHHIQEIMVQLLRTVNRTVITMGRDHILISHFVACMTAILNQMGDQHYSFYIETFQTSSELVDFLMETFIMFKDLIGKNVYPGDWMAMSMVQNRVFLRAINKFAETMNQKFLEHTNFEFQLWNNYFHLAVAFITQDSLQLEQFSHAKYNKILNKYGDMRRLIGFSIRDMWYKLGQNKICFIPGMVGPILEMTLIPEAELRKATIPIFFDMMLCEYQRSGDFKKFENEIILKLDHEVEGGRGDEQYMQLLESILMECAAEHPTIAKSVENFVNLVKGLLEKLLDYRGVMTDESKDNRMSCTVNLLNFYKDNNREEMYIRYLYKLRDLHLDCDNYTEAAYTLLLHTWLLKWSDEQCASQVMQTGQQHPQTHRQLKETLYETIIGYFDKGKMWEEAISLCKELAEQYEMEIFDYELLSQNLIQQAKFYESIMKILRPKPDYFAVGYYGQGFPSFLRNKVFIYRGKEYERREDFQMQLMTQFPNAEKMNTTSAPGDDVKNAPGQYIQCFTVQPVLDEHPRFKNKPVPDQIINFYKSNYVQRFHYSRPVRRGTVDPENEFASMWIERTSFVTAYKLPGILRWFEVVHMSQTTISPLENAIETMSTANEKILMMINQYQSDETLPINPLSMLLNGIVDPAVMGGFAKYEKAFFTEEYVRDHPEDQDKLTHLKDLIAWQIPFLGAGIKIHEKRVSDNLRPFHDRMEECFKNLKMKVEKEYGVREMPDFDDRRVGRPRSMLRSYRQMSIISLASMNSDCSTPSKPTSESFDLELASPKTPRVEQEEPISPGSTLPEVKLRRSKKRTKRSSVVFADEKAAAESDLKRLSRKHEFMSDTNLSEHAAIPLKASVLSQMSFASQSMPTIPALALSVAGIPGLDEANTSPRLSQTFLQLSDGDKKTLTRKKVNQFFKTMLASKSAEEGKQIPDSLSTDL
UniProt Q92556: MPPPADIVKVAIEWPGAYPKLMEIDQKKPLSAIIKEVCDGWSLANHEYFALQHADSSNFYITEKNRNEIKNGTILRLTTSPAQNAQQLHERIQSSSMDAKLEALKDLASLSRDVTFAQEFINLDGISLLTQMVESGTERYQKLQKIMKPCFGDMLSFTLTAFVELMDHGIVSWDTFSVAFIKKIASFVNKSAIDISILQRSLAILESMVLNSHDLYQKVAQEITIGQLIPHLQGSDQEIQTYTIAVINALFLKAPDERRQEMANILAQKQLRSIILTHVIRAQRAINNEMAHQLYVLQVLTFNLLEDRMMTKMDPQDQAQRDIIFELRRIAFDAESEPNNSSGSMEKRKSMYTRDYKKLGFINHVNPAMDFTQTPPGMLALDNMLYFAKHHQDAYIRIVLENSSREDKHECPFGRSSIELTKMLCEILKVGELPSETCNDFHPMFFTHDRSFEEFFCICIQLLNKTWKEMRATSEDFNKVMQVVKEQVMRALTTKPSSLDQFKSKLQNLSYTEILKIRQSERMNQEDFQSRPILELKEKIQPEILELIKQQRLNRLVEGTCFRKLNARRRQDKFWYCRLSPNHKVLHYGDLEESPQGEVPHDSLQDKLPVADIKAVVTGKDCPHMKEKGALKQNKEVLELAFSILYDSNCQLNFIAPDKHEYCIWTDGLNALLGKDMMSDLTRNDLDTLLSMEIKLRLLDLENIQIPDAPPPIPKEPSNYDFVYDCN

The target of another experiment is His-tagged DOCK2 (human) (UniProt Q92608). Nature of the experiment: pull-down; HEK 293 cells transiently coexpressing His-DOCK2, Myc-ELMO1, Myc-Rac2, with or without NA7-hf; extracts in LB buffer on Ni–NTA agarose, eluted with 250 mM imidazole; immunoblotting.

Results are given in words; binding and its absence hold for the method and conditions named. In cells and extracts the contact can be indirect. Some results given as binding are weak or reduced against the parent protein; the word gives no strength.

For “His-tagged DOCK2 (from UniProt Q92608 1-1830)”, the binding entry in experiment [1] is “binds”.

For “Myc-tagged ELMO1 (from UniProt Q92556 1-727)”, the binding result (in the experiment with His-tagged DOCK2 (human); in experiment [1]) was “binds” throughout.

These data come from publication PMC314466.
